Experimental data reported in publication PMC8970474.
Results are given in words; binding and its absence hold for the method and conditions named. In cells and extracts the contact can be indirect. Some results given as binding are weak or reduced against the parent protein; the word gives no strength. For some of these results: Sequences can lack the tags named with a protein. Blank lines part the entries; values can stand above or below the molecule they belong to.

Sequences of proteins named here, by UniProt entry; tags and fusion partners are left off. Residues count along the entry.
UniProt P31016, residues 403-724: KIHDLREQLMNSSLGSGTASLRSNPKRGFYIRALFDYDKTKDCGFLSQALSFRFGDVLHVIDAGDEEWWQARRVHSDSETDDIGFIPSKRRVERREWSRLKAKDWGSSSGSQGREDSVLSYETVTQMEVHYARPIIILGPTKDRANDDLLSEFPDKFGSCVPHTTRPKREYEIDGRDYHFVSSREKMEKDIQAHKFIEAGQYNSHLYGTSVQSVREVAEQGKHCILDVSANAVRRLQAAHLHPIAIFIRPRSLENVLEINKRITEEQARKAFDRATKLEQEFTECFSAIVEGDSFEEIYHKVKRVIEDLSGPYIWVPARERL
UniProt P62813, residues 28-455: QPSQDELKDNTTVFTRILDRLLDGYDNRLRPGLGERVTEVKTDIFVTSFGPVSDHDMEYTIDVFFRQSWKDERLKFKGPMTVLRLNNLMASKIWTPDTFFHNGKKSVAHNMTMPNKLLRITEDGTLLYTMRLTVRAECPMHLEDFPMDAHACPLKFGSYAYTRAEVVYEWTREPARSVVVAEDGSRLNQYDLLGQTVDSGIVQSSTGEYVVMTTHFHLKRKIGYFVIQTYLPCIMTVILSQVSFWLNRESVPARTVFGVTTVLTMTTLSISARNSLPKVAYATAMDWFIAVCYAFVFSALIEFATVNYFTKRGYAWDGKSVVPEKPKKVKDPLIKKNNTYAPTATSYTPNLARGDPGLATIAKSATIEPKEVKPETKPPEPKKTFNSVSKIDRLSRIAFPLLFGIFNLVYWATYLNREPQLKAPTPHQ
UniProt P23576, residues 29-451: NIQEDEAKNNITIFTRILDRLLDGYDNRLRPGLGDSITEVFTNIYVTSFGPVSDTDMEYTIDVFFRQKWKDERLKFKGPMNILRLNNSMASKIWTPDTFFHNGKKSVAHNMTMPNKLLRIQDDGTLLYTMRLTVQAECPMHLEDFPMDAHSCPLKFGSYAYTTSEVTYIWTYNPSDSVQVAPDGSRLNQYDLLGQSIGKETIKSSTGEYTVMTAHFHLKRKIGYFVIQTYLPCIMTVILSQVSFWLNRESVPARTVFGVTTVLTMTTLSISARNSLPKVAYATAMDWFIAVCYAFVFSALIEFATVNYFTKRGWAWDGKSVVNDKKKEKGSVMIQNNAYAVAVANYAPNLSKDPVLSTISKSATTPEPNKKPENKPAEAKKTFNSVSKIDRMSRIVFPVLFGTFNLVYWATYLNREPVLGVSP
UniProt P63079, residues 26-473: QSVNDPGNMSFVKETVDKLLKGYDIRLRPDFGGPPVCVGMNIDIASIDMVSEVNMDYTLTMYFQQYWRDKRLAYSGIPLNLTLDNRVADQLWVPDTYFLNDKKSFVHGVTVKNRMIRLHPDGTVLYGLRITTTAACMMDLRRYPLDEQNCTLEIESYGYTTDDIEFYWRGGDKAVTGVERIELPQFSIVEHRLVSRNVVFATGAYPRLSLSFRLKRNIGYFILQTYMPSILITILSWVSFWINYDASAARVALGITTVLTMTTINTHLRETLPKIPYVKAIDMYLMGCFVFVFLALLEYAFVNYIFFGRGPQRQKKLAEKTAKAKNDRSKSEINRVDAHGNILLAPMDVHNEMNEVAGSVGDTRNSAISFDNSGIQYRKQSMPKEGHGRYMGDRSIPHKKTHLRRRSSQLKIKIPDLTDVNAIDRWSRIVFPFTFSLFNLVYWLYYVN
UniProt O60331: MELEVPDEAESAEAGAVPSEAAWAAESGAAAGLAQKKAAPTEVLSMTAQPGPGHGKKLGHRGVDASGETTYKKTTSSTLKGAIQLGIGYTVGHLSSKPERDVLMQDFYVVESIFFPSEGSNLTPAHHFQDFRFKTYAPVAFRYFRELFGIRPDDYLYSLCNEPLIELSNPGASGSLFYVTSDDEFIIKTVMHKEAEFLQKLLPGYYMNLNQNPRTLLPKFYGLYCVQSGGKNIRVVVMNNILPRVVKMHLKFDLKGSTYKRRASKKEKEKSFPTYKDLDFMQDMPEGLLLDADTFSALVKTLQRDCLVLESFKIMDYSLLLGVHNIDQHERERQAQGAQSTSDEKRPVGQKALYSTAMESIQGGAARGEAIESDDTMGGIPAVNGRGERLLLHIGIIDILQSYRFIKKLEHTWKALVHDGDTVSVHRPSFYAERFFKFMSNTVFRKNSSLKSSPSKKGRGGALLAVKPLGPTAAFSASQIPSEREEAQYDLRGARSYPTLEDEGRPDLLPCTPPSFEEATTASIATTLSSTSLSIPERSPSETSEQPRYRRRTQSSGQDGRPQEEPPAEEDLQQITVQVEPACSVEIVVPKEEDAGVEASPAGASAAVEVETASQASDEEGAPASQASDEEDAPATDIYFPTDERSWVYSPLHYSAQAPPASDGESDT

Key:
[1] = target: T1, EGFP-MPP2 (mouse) (UniProt Q9WV34); assay: co-IP; co-expression in HEK293T cells; lysis in 50 mM Tris pH 7.4, 100 mM NaCl, 1 mM EDTA, 1% Triton-X or 0.1% NP-40; precipitated with αGFP or normal mouse IgG and protein-G-agarose, 4°C; western blot
T1 sequence: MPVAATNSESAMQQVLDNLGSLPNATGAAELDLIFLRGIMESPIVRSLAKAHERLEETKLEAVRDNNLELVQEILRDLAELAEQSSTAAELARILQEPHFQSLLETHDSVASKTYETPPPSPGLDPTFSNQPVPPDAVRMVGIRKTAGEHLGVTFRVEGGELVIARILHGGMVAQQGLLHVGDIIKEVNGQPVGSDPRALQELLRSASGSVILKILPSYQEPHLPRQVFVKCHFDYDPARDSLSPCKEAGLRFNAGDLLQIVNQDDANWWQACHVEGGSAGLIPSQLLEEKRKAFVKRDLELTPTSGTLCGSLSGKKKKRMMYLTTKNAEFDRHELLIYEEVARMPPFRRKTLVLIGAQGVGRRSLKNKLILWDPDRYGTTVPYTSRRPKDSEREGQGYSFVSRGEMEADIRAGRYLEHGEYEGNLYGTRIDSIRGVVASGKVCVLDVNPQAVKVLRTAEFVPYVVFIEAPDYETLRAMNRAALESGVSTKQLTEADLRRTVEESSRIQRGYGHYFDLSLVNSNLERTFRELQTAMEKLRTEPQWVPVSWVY

[2] = target: T2, GST-MPP2-SH3GK (mouse) (UniProt Q9WV34); assay: pull-down; GST-SH3GK proteins on glutathione agarose, incubated with crude brain synaptosome preparations; western blot with αGABAAR α1 and αGST; bead control; only the target purified
T2 sequence: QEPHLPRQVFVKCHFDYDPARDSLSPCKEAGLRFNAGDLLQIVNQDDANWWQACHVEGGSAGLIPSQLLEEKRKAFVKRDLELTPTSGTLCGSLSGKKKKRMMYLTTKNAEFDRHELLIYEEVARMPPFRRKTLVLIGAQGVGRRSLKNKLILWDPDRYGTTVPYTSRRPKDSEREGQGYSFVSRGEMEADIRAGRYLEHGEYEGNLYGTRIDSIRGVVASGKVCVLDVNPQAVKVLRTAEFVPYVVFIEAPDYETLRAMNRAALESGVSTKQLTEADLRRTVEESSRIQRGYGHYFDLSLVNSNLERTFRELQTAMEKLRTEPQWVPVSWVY

[3] = target: GST-PSD-95-SH3GK (UniProt P31016); assay: as above
[4] = target: pHluorin-tagged GABAAR α1 (UniProt P62813); assay: co-IP; pHluorin-tagged GABAA receptor subunit and FLAG-MPP2 co-expressed in CHL V79 cells; precipitated with Ms αGFP or normal Ms-IgG; western blot with αFLAG-HRP and αGFP
[5] = target: pHluorin-tagged GABAAR α2 (UniProt P23576); assay: as above
[6] = target: pHluorin-tagged GABAAR β3 (UniProt P63079); assay: as above
[7] = target: EGFP-tagged Pip5k1c (UniProt O60331); assay: co-IP; co-expression in HEK293T cells; lysis in 50 mM Tris pH 7.4, 100 mM NaCl, 1 mM EDTA, 1% Triton-X or 0.1% NP-40; precipitated with αGFP or normal mouse IgG and protein-G-agarose, 4°C; western blot

Molecule: GABAAR α1 (Gamma-aminobutyric acid receptor subunit alpha-1), endogenous (from UniProt P62813 28-455)
binding [2]: binds
binding [3]: no binding

Molecule: FLAG-tagged Ppp3ca (from UniProt P63329-1 1-521) (enzyme)
binding [1]: binds

B1: FLAG-tagged Farp1 (protein, UniProt F1LYQ8 1-1049)
chain: MGEIEQKPTPASRLGAPENSGISTLERGQKPPPTPSGKLMTVKIQMLDDTQEAFEVPQRAPGKVLFDAVCNHLNLVEGDYFGLEFPDHRKIVVWLDLLKPIVKQIRRPKHVLVKFVVKFFPPDHTQLQEELTRYLFALQVKQDLAQGRLTCNDTSAALLISHIVQSEIGDFDEALDREHLAKNKYVPQQDALEDKIVEFHHSHIGQTPAESDFQLLEVARRLEMYGIRLHPAKDREGTKINLAVANTGILVFQGFTKINAFNWAKVRKLSFKRKRFLIKLRPDVNSSYQDTLEFLMAGRDFCKSFWKICVEHHAFFRLFEEPKPKPKPVLFSRGSSFRFSGRTQKQVLDYVKEGGHKKVQFERKHSKIHSTRSLVSQPTAPNSEVPKQSPQSASLTFGEGTESPSAQSCQQAKETKVCTLEPGPRQSPALSKSPSGSKAADGTAAAAPPEEEDEEEGGKDGIRPSNPQPPQPSTGSLTGSPHLSELSINSQGGAAPANVTLSPNLSPDNKQASPLISPLLNDQACPRTDDEEEGRRKRFPTDKAYYIAKEVSTTERTYLKDLEVIASWFQSTVSKEDSMPEALKSLIFPNFEPLHKFHTNFLKEIEQRLALWEGRSNAHIRGDYQRIGDVMLKNIQGMKHLAAHLWKHSEALEALETSIKGSRRLEHFCRDFELQKVCYLPLNTFLLRPLHRLMHYKQVLERLCKHHPPNHADFRDCRAALAEITEMVAQLHGTMIKMENFQKLHELKKDLIGIDNLVIPGREFIRLGSLSKLSGKGLQQRMFFLFNDVLLYTSRGLTASNQFKVHGQLPLYGMTIEESEEEWGVPHCLTLRGQRQSIIVAASSRSEMEKWLEDIQMAIDLAEKSNGPTPELLASSPPDNKSPDEATAADQESEDDLSASRTSLERQAPHRGNTMVHVCWHRSTSVSMVDFSIAVENQLSGNLLRKFKNSNGWQKLWVVFTNFCLFFYKSHQDSHPLASLPLLGYSLTIPSESENIHKDYVFKLHFKSHVYYFRAESEYTFERWMEVIRSATSSASRAHSLSHKESHLY
binding [1]: binds

B4: FLAG-tagged Arhgef2 (protein, UniProt Q5FVC2 1-985)
chain: MSRIESLTRARIDRSKEQATKTREKEKMKEAKDARYTNGHLFTTISVSGMTMCYACNKSITAKEALICPTCNVTIHNRCKDTLANCTKVKQKQQKAALLRNNTALQSVSLRSKTTTRERPTSAIYPSDSFRQSLLGSRRGLSSLSLAKSVSTTNIAGHFNDESPLGLRQILSQSTDSLNMRNRTLSVESLIDEGVEVFYNELMSDFEMDEKDFEADSWSLAVDSSFLQQHKKEVMKKQDVIYELIQTELHHVRTLKIMTRLFRTGMLEELQMEPEVVQGLFPCVDELSDIHTRFLSQLLERRRQALCPGSTRNFVIHRLGDLLISQFSGSNAEQMRKTYSEFCSRHTKALKLYKELYARDKRFQQFIRKMTRSAVLKRHGVQECILLVTQRITKYPVLINRILQNSHGIEEEYQDLAAALGLVKELLSNVDQDVHELEKEARLQEIYNRMDPRAQTPVPGKGPFGRDELLRRKLIHDGCLLWKTATGRFKDVLLLLMTDVLVFLQEKDQKYIFTSLDKPSVVSLQNLIVRDIANQAKGMFLISSGPPEMYEVHAASRDDRTTWIRVIQQSVRLCPSREDFPLIETEDKAYLRRIKTKLQQKNQALVELLQMNVELFAEMVHFQALKAGFIGMPPPTLPRGLFRLESFESLRGERLLKDALREVEGLKDLLLGPCVDLPLTAREPALPVEADSGSCPGVTANGEARTFNGSIELCRADSDSSQKDRNGNQLRSPQEEALQPLVNLYGLLQGLQAVVVQQERLMEALFPEGPERWEKLSRANSRDGEAGRAAVASVTPEKQATELALLQRQHSLLQEELRRCQRLGEERATEAGSLEARLRESEQARALLEREAEEIRRQLAALGQNEPLPAEAPWARRPLDPRRRSLPAGDALYLSFNPPQPSRGHDRLDLPVTVRSLHRPFDDREAQELGSPEDRLQDSSDPDTCSEEEVSSRLSPPHSPRDFTRMQDIPEETESRDGEPTASES
binding [1]: binds

The next lines start with the values.

binding [1]: binds
Molecule: HA-Gnao1 (from UniProt P59215-1 1-354)

binding [4]: binds
binding [5]: binds
binding [6]: binds
B2: FLAG-MPP2 (full-length, in CHL V79 cells) (protein, UniProt Q9WV34-1 1-552)
chain: T1 sequence

binding [7]: binds
B3: FLAG-MPP2 (in HEK293T cells) (protein, UniProt Q9WV34-1 1-552)
chain: T1 sequence
